Record: PubChem BioAssay AID1159579 (Peter MacCallum Cancer Centre, 2015)

Assay: 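Retest candidate lymphatic endothelial migration regulators using several independent siRNAs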 (follow-up of hits)
Cells: human dermal lymphatic endothelial cells
Reagents: single siRNA against human genes, 25 nM
Measured: 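Scratch wound imaging measuring area filled by moving cells plus nuclei number, averaged over two wells and scaled to mock-transfected controls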
Direction: migration relative to mock: higher = more migration into the scratch; mean nuclei count: higher = more cells remaining
Call rule: 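Called active when the migration ratio is 0.6 or lower (impaired) or 1.3 or higher (accelerated), but inactive whenever the mean nuclei count falls under 3300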
Calls: active = migration changed (impaired or accelerated); inactive = no migration change, or too few cells
The whole screen tested about 2,000 reagents; this is a part drawn at random. In the full data, 549 (27%) were called active. 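Some migration ratios are negative; siRNAs with too few cells are inactive whatever their migration ratio.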 The numbers tell different reagents against one gene apart. Not given: the time to read-out.

target | reagent | migration relative to mock | migration and cell number class | mean nuclei count | activity call
GBA1 | 1 | 0.84 | no change in migration or cell number | 5086 | inactive
GBA1 | 2 | 0.13 | migration reduced | 5480 | active
GBA1 | 3 | 0.46 | migration reduced | 5470 | active
GBA1 | 4 | 0.82 | no change in migration or cell number | 7292 | inactive
OR10H4 | 1 | 0.82 | no change in migration or cell number | 5111 | inactive
OR10H4 | 2 | 0.84 | no change in migration or cell number | 6112 | inactive
OR10H4 | 3 | 0.31 | migration reduced | 5022 | active
OR10H4 | 4 | 0.5 | migration reduced | 5996 | active
TCF12 | 1 | 0.52 | migration reduced | 5218 | active
TCF12 | 2 | 0.86 | no change in migration or cell number | 6258 | inactive
TCF12 | 3 | 0.74 | no change in migration or cell number | 6145 | inactive
TCF12 | 4 | 0.82 | no change in migration or cell number | 6154 | inactive
ATF2 | 1 | 0.85 | no change in migration or cell number | 6556 | inactive
ATF2 | 2 | 0.72 | no change in migration or cell number | 5988 | inactive
ATF2 | 3 | 0.73 | no change in migration or cell number | 5489 | inactive
ATF2 | 4 | 0.86 | no change in migration or cell number | 6312 | inactive
THBS2 | 1 | 1.08 | no change in migration or cell number | 5902 | inactive
THBS2 | 2 | 1 | no change in migration or cell number | 5758 | inactive
THBS2 | 3 | 0.91 | no change in migration or cell number | 5626 | inactive
THBS2 | 4 | 0.78 | no change in migration or cell number | 5735 | inactive
ABCA2 | 1 | 0.85 | no change in migration or cell number | 6836 | inactive
ABCA2 | 2 | 0.37 | migration reduced | 5371 | active
ABCA2 | 3 | 0.3 | migration reduced | 3983 | active
ABCA2 | 4 | 0.69 | no change in migration or cell number | 4330 | inactive
MEGF11 | 1 | 0.74 | no change in migration or cell number | 5366 | inactive
MEGF11 | 2 | 0.74 | no change in migration or cell number | 6612 | inactive
MEGF11 | 3 | 0.43 | migration reduced | 5135 | active
MEGF11 | 4 | -0.18 | too few cells; migration not scored | 2654 | inactive
AGER | 1 | 1.1 | no change in migration or cell number | 6051 | inactive
AGER | 2 | 0.94 | no change in migration or cell number | 5854 | inactive
AGER | 3 | 0.62 | no change in migration or cell number | 5202 | inactive
AGER | 4 | 0.86 | no change in migration or cell number | 6304 | inactive
FBXO4 | 1 | 0.36 | migration reduced | 3504 | active
FBXO4 | 2 | 0.8 | no change in migration or cell number | 5428 | inactive
FBXO4 | 3 | 0.8 | no change in migration or cell number | 5392 | inactive
FBXO4 | 4 | -1.07 | migration reduced | 3998 | active

6 of these entries in another layout.
ATF2 #2 | migration relative to mock: 0.72; migration and cell number class: no change in migration or cell number; mean nuclei count: 5988; activity call: inactive
ATF2 #3 | migration relative to mock: 0.73; migration and cell number class: no change in migration or cell number; mean nuclei count: 5489; activity call: inactive
ATF2 #4 | migration relative to mock: 0.86; migration and cell number class: no change in migration or cell number; mean nuclei count: 6312; activity call: inactive
THBS2 #1 | migration relative to mock: 1.08; migration and cell number class: no change in migration or cell number; mean nuclei count: 5902; activity call: inactive
THBS2 #2 | migration relative to mock: 1; migration and cell number class: no change in migration or cell number; mean nuclei count: 5758; activity call: inactive
THBS2 #3 | migration relative to mock: 0.91; migration and cell number class: no change in migration or cell number; mean nuclei count: 5626; activity call: inactive

Continued:
target | reagent | migration relative to mock | migration and cell number class | mean nuclei count | activity call
SGIP1 | 1 | 0.3 | migration reduced | 3396 | active
SGIP1 | 2 | 1.24 | no change in migration or cell number | 6681 | inactive
SGIP1 | 3 | 0.83 | no change in migration or cell number | 5239 | inactive
SGIP1 | 4 | 0.88 | no change in migration or cell number | 4922 | inactive
MTARC1 | 1 | 0.54 | migration reduced | 5203 | active
MTARC1 | 2 | 0.78 | no change in migration or cell number | 6352 | inactive
MTARC1 | 3 | 0.5 | migration reduced | 5511 | active
MTARC1 | 4 | 0.8 | no change in migration or cell number | 5491 | inactive
PLCL1 | 1 | 0.75 | no change in migration or cell number | 5427 | inactive
PLCL1 | 2 | 0.76 | no change in migration or cell number | 4746 | inactive
PLCL1 | 3 | 0.86 | no change in migration or cell number | 4512 | inactive
PLCL1 | 4 | 1.48 | migration increased | 5610 | active
TAS1R2 | 1 | -1.06 | too few cells; migration not scored | 1398 | inactive
TAS1R2 | 2 | 0.84 | no change in migration or cell number | 5216 | inactive
TAS1R2 | 3 | 0.63 | no change in migration or cell number | 5216 | inactive
TAS1R2 | 4 | 0.76 | no change in migration or cell number | 5053 | inactive
FBXO7 | 1 | -0.16 | migration reduced | 3735 | active
FBXO7 | 2 | 0.33 | migration reduced | 4210 | active
FBXO7 | 3 | 0.9 | no change in migration or cell number | 6130 | inactive
FBXO7 | 4 | 0.88 | no change in migration or cell number | 5334 | inactive
MYBL2 | 1 | 1.12 | no change in migration or cell number | 6166 | inactive
MYBL2 | 2 | 1.02 | no change in migration or cell number | 6572 | inactive
MYBL2 | 3 | 1.04 | no change in migration or cell number | 5798 | inactive
MYBL2 | 4 | 0.14 | migration reduced | 5422 | active
GDF6 | 1 | 0.74 | no change in migration or cell number | 5956 | inactive
GDF6 | 2 | 0.93 | no change in migration or cell number | 6029 | inactive
GDF6 | 3 | 1.23 | no change in migration or cell number | 5676 | inactive
GDF6 | 4 | 1.06 | no change in migration or cell number | 5206 | inactive
STK40 | 1 | 1.07 | no change in migration or cell number | 6572 | inactive
STK40 | 2 | 1.1 | no change in migration or cell number | 5694 | inactive
STK40 | 3 | 0.16 | migration reduced | 3780 | active
STK40 | 4 | 1.04 | no change in migration or cell number | 7338 | inactive
